# Not every detail of the peptide structures is certain; ends, links or a residue may be inferred. For at least one compound, name, drawing or mass did not settle the structure. Bridge positions count the residues as written; N and C are the ends. Peptide text beside a SMILES is read from it. I, II: the chains in the order shown.
# Experiments:
# Assay type in all cases: cell-based
# [1] = system: B. subtilis, C. albicans, E. coli, E. aerogenes, P. aeruginosa, and S. aureus; assay: Disk diffusion assay (DDA); conditions: 500 μg/disk; 24 hours bacteria, 48 hours yeast; all microbes tested
# E. coli = conditions: CFU counts at 18 hours
# Method: (§1) E. coli and S. aureus were treated at MIC and 2×MIC concentrations with [(LLKK)2]4 peptide. At various time periods (0, 0.5, 1, 2, 5, 8 and 18 hours), microbial suspensions were diluted at 3 different dilutions and plated on 1.5% LB agar plates. Microbial colonies were formed and counted after 24 hours of incubation (for bacteria) or 48 hours of incubation (for yeast).
# S. aureus = conditions: CFU counts at 18 hours
# Method: as §1
SMILES,prevention of colony formation (zone of inhibition) [1],killing efficiency at 2×MIC (E. coli; 2×MIC),killing efficiency at MIC (E. coli; MIC),killing efficiency at 2×MIC (S. aureus; 2×MIC),killing efficiency at MIC (S. aureus; MIC)
"CC(C)C[C@H](NC(=O)[C@H](CC(C)C)NC(=O)[C@H](CCCCN)NC(=O)[C@H](CCCCN)NC(=O)[C@H](CC(C)C)NC(=O)[C@@H](N)CC(C)C)C(=O)N[C@@H](CCCCN)C(=O)N[C@@H](CCCCN)C(=O)NCCCC[C@H](NC(=O)[C@H](CCCCN)NC(=O)[C@H](CCCCN)NC(=O)[C@H](CC(C)C)NC(=O)[C@H](CC(C)C)NC(=O)[C@H](CCCCN)NC(=O)[C@H](CCCCN)NC(=O)[C@H](CC(C)C)NC(=O)[C@@H](N)CC(C)C)C(=O)N[C@@H](CS)C(N)=O [[(LLKK)2]2, [LLKKLLKK]2K*C—CONH2] (I: H-LLKKLLKKKC-NH2 / II: H-LLKKLLKK; amide I:9-II:C)",observable zone of inhibition,–,–,–,–
"CC(C)C[C@H](NC(=O)[C@H](CC(C)C)NC(=O)[C@H](CCCCN)NC(=O)[C@H](CCCCN)NC(=O)[C@H](CC(C)C)NC(=O)[C@@H](N)CC(C)C)C(=O)N[C@@H](CCCCN)C(=O)N[C@@H](CCCCN)C(=O)NCCCC[C@H](NC(=O)[C@H](CCCCN)NC(=O)[C@H](CCCCN)NC(=O)[C@H](CC(C)C)NC(=O)[C@H](CC(C)C)NC(=O)[C@H](CCCCN)NC(=O)[C@H](CCCCN)NC(=O)[C@H](CC(C)C)NC(=O)[C@@H](N)CC(C)C)C(=O)N[C@@H](CSSC[C@H](NC(=O)[C@H](CCCCNC(=O)[C@H](CCCCN)NC(=O)[C@H](CCCCN)NC(=O)[C@H](CC(C)C)NC(=O)[C@H](CC(C)C)NC(=O)[C@H](CCCCN)NC(=O)[C@H](CCCCN)NC(=O)[C@H](CC(C)C)NC(=O)[C@@H](N)CC(C)C)NC(=O)[C@H](CCCCN)NC(=O)[C@H](CCCCN)NC(=O)[C@H](CC(C)C)NC(=O)[C@H](CC(C)C)NC(=O)[C@H](CCCCN)NC(=O)[C@H](CCCCN)NC(=O)[C@H](CC(C)C)NC(=O)[C@@H](N)CC(C)C)C(N)=O)C(N)=O [[(LLKK)2]4, [LLKKLLKK]2K*C—S—S—CK*[KKLLKKLL]2] (I: H-LLKKLLKKKC-NH2 / II: H-LLKKLLKKKC-NH2 / III: H-LLKKLLKK / IV: H-LLKKLLKK; amide I:9-III:C, II:9-IV:C; disulfide I:10-II:10)",observable zone of inhibition,more than 11 log reduction,at least 6 log reduction,more than 11 log reduction,at least 6 log reduction
